# The list shows only some results of the screen, not a fair sample: it is rich in T/C values a quarter to a half above the control, in often repeated tests (any T/C) and in doses without a T/C. Further doses and runs are listed elsewhere. T/C: endpoint of the treated group in % of that of the vehicle group. Some entries give survivors of the animals treated and no T/C: the source holds a T/C of zero for them, seemingly a mark for toxic or unscored doses. Some survivor counts are full or nearly so, which does not show that the dose was tolerated: the source hardly ever lists a survival T/C far under the control, and the zero likely stands for such cases as well. Counts of survivors are from the toxicity check (mostly the fifth day) where no day follows; animals may have died later. Schedule codes are those of the source, taken here to give the interval after Q, in days (D) or hours (H), and the number of doses after X. Some doses were run more than once; their values stand side by side, smallest first. Some structures stand for samples that the source files as different forms (salt, stereo form or complex); doses refer to the form tested. Where survival is the endpoint, the PubChem record calls one and a half times the control and up active, and a quarter to a half above the control has no call in these data; cut-offs in other NCI protocols can differ. Some T/C values carry the count of animals alive at the toxicity check (mostly the fifth day); where none is given, no animal had died by that day.
# Test system: BDF1 mice, P388 leukemia ip, median survival T/C
# Assay: NCI In Vivo Anticancer Drug Screen. Data for tumor model P388 Leukemia (intraperitoneal) in B6D2F1 (BDF1) mice
# Details: T/C endpoint: median survival time, higher T/C = longer survival
# In short: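 T/C = treated-group survival ÷ vehicle-control survival; tumour transplanted into mice before dosing.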
# [1] = dose: 0.25 mg/kg/injection, schedule: Q01DX009 (ip), vehicle: saline with Tween-80
# [2] = dose: 0.5 mg/kg/injection, schedule: Q01DX009 (ip), vehicle: saline with Tween-80
# [3] = dose: 1.0 mg/kg/injection, schedule: Q01DX009 (ip), vehicle: saline with Tween-80
# [4] = dose: 2.0 mg/kg/injection, schedule: Q01DX009 (ip), vehicle: saline with Tween-80
# [5] = dose: 4.0 mg/kg/injection, schedule: Q01DX009 (ip), vehicle: saline with Tween-80
# [6] = dose: 8.0 mg/kg/injection, schedule: Q01DX009 (ip), vehicle: saline with Tween-80
# [7] = dose: 100.0 mg/kg/injection, schedule: Q01DX001 (ip), vehicle: Klucel (hydroxypropylcellulose) (HPC)
# [8] = dose: 200.0 mg/kg/injection, schedule: Q01DX001 (ip), vehicle: Klucel (hydroxypropylcellulose) (HPC)
# [9] = dose: 50.0 mg/kg/injection, schedule: Q01DX009 (ip), vehicle: saline with Tween-80
# [10] = dose: 200.0 mg/kg/injection, schedule: Q01DX009 (ip), vehicle: saline with Tween-80
# [11] = dose: 100.0 mg/kg/injection, schedule: Q01DX009 (ip), vehicle: saline
# [12] = dose: 400.0 mg/kg/injection, schedule: Q04DX003 (ip), vehicle: saline
# [13] = dose: 48.0 mg/kg/injection, schedule: Q01DX009 (ip), vehicle: saline + alcohol
# [14] = dose: 200.0 mg/kg/injection, schedule: Q04DX003 (ip), vehicle: Klucel (hydroxypropylcellulose) (HPC)
# [15] = dose: 200.0 mg/kg/injection, schedule: Q01DX009 (ip), vehicle: saline
# [16] = dose: 25.0 mg/kg/injection, schedule: Q01DX009 (ip), vehicle: Klucel (hydroxypropylcellulose) (HPC)
# [17] = dose: 100.0 mg/kg/injection, schedule: Q01DX009 (ip), vehicle: Klucel (hydroxypropylcellulose) (HPC)
# [18] = dose: 200.0 mg/kg/injection, schedule: Q01DX009 (ip), vehicle: Klucel (hydroxypropylcellulose) (HPC)
structure (smiles),measurement,setting,value
CC1=CC(=O)[C@@H](O)[C@]2(C)[C@H]3[C@@]4(O)OC[C@]35[C@H]([C@@H](C)[C@H]4O)[C@@H](OC(=O)c3ccccc3)C(=O)O[C@@H]5C[C@@H]12,survivor count,"dose: 0.06 mg/kg/injection, schedule: Q01DX009 (ip), vehicle: saline with Tween-80",5 of 6
same,survivor count,"dose: 0.12 mg/kg/injection, schedule: Q01DX009 (ip), vehicle: saline with Tween-80",6 of 6
same,T/C,[1],125 and 131 % of control
same,survivor count,[1],5 of 6
same,T/C,[2],"127, 139, 184 % of control [5 of 6 alive]"
same,survivor count,[2],6 of 6
same,T/C,[3],"125, 134 [5 of 6 alive], 175 % of control"
same,survivor count,[3],6 of 6
same,T/C,[4],"135, 161, 201 % of control [4 of 6 alive]"
same,survivor count,[4],3 of 6
same,T/C,[5],146 and 151 % of control
same,survivor count,[5],3 of 6 and 5 of 6
same,T/C,[6],137 % of control
same,survivor count,[6],1 of 6 and 5 of 6
same,survivor count,"dose: 16.0 mg/kg/injection, schedule: Q01DX009 (ip), vehicle: saline with Tween-80",3 of 6
same,survivor count,"dose: 32.0 mg/kg/injection, schedule: Q01DX009 (ip), vehicle: saline with Tween-80",0 of 6
CC[N+](CC)(CC)CC.N#C/C([SH2+])=C(/[SH2+])C#N.N#C/C([SH2+])=C(/[SH2+])C#N.[Cu+2],survivor count,[7],0 of 6
same,survivor count,[8],0 of 6
same,survivor count,"dose: 400.0 mg/kg/injection, schedule: Q01DX001 (ip), vehicle: Klucel (hydroxypropylcellulose) (HPC)",0 of 6
CCOC(=O)C(N)CSC(c1ccccc1)(c1ccccc1)c1ccccc1 (stereo not drawn),T/C,"dose: 22.0 mg/kg/injection, schedule: Q04DX003 (ip), vehicle: saline",127 % of control
Cc1cc(-c2ccccc2)[n+](C)n1C,survivor count,[9],2 of 6
C1OCN2CSCC12 (stereo not drawn),T/C,"dose: 200.0 mg/kg/injection, schedule: Q04DX002 (ip), vehicle: suspension in saline",126 % of control [5 of 6 alive]
same,T/C,"dose: 400.0 mg/kg/injection, schedule: Q04DX002 (ip), vehicle: suspension in saline",126 % of control
CCCCCCCCCCCCCCCCS(=O)(=O)NN,survivor count,"dose: 100.0 mg/kg/injection, schedule: Q01DX009 (ip), vehicle: other",4 of 6
same,survivor count,"dose: 200.0 mg/kg/injection, schedule: Q01DX009 (ip), vehicle: other",1 of 6
CS(=O)(=O)c1cnc2ccccc2n1,survivor count,[10],5 of 6
same,survivor count,"dose: 400.0 mg/kg/injection, schedule: Q01DX009 (ip), vehicle: saline with Tween-80",0 of 6
N#CC1(C#N)C(c2ccccc2)C1(C#N)C#N,T/C,"dose: 1.33 mg/kg/injection, schedule: Q01DX009 (ip), vehicle: saline",130 % of control
same,T/C,[5],127 and 130 % of control
same,survivor count,"dose: 4.0 mg/kg/injection, schedule: Q01DX009 (ip), vehicle: saline",2 of 6
same,T/C,"dose: 6.0 mg/kg/injection, schedule: Q01DX009 (ip), vehicle: saline with Tween-80",127 % of control
same,survivor count,"dose: 12.5 mg/kg/injection, schedule: Q01DX009 (ip), vehicle: saline with Tween-80",4 of 6
same,survivor count,"dose: 25.0 mg/kg/injection, schedule: Q01DX009 (ip), vehicle: saline with Tween-80",4 of 6
CN1CCN(CCNc2ccc(CO)c3sc4ccccc4c(=O)c23)CC1,survivor count,"dose: 150.0 mg/kg/injection, schedule: Q01DX009 (ip), vehicle: Klucel (hydroxypropylcellulose) (HPC)",6 of 6
CC(C)(C)N1CCOCC1,survivor count,[11],0 of 6
same,survivor count,"dose: 170.0 mg/kg/injection, schedule: Q04DX003 (ip), vehicle: saline",1 of 6
Cc1ccc(NO)c(C)c1,survivor count,"dose: 200.0 mg/kg/injection, schedule: Q01DX005 (ip), vehicle: saline with Tween-80",1 of 6
CCCC[N+](CCCC)(CCCC)CCCC.Cc1ccc([SH2+])c([SH2+])c1.Cc1ccc([SH2+])c([SH2+])c1.[Ni+3],T/C,"dose: 400.0 mg/kg/injection, schedule: Q04DX003 (ip), vehicle: Klucel (hydroxypropylcellulose) (HPC)",145 % of control
same,T/C,[12],130 % of control
same,T/C,"dose: 600.0 mg/kg/injection, schedule: Q04DX003 (ip), vehicle: Klucel (hydroxypropylcellulose) (HPC)",129 % of control [5 of 6 alive]
CO[C@H]1CC=C2CCN3CCCc4cc5c(cc4[C@]23C1)OCO5,survivor count,"dose: 40.0 mg/kg/injection, schedule: Q01DX009 (ip), vehicle: alcohol",5 of 6
same,survivor count,"dose: 80.0 mg/kg/injection, schedule: Q01DX009 (ip), vehicle: alcohol",6 of 6
c1cc2c(c(CC3CO3)c1CC1CO1)OCCOCCOCCOCCO2 (stereo not drawn),T/C,"dose: 12.0 mg/kg/injection, schedule: Q01DX009 (ip), vehicle: saline + alcohol",127 % of control
same,T/C,"dose: 24.0 mg/kg/injection, schedule: Q01DX009 (ip), vehicle: saline + alcohol",130 % of control
same,T/C,[13],137 % of control
same,survivor count,[13],3 of 6
O=C1CSC(c2ccccc2)N1 (stereo not drawn),survivor count,[14],6 of 6
c1cc2cnc3cccc4cnc(c1)c2c43,survivor count,"dose: 200.0 mg/kg/injection, schedule: Q01DX001 (ip), vehicle: saline sonified",5 of 6
CC(=O)N1C(=O)NC(=O)C1(C)c1ccco1 (stereo not drawn),survivor count,[9],6 of 6
same,survivor count,"dose: 400.0 mg/kg/injection, schedule: Q04DX003 (ip), vehicle: saline with Tween-80",4 of 6
CSc1ncncc1N,survivor count,[15],0 of 6
COc1c(C#N)c2c(c(OC)c1OC)-c1ccc(OC)c(=O)cc1[C@@H](NC(C)=O)CC2,T/C,"dose: 12.5 mg/kg/injection, schedule: Q01DX009 (ip), vehicle: Klucel (hydroxypropylcellulose) (HPC)",137 % of control
same,T/C,[16],144 % of control
same,survivor count,"dose: 50.0 mg/kg/injection, schedule: Q01DX009 (ip), vehicle: Klucel (hydroxypropylcellulose) (HPC)",6 of 6
same,survivor count,[17],0 of 6
c1ccc2c(c1)C1c3cccc[n+]3C2CC1n1c2ccccc2c2ccccc21 (stereo not drawn),T/C,[16],141 % of control
same,survivor count,"dose: 35.0 mg/kg/injection, schedule: Q01DX009 (ip), vehicle: Klucel (hydroxypropylcellulose) (HPC)",6 of 6
same,survivor count,[18],0 of 6
same,survivor count,"dose: 400.0 mg/kg/injection, schedule: Q01DX009 (ip), vehicle: Klucel (hydroxypropylcellulose) (HPC)",4 of 6
Cc1cc(O)c(C(c2ccc(N(C)C)cc2Cl)c2c(O)cc(C)[nH]c2=O)c(=O)[nH]1,survivor count,[10],4 of 6
COC(=O)Nc1cccc(-c2nc3ccc(NC(=O)OC)cc3c(=O)n2-c2ccccc2)c1,T/C,[16],137 % of control
same,survivor count,[17],5 of 6
same,survivor count,[11],5 of 7
same,survivor count,"dose: 150.0 mg/kg/injection, schedule: Q01DX009 (ip), vehicle: saline",3 of 7
same,survivor count,[18],1 of 6
same,survivor count,[15],6 of 7
same,T/C,"dose: 200.0 mg/kg/injection, schedule: Q01DX009 (oral), vehicle: Klucel (hydroxypropylcellulose) (HPC)",125 % of control
same,T/C,"dose: 400.0 mg/kg/injection, schedule: Q01DX009 (oral), vehicle: Klucel (hydroxypropylcellulose) (HPC)",131 % of control
OCCNCc1ccc2ccccc2n1,survivor count,[12],1 of 6
CCCCCCCCCCCCCCCCCCNC(=S)N/N=C/c1ccc(Cl)cc1Cl,survivor count,"dose: 50.0 mg/kg/injection, schedule: Q01DX001 (ip), vehicle: Klucel (hydroxypropylcellulose) (HPC)",6 of 6
same,survivor count,[7],6 of 6
same,survivor count,[8],6 of 6
same,survivor count,[14],6 of 6

# — PubChem BioAssay AID328 (DTP/NCI, 2004)
